The values are deposited in ChEMBL (CHEMBL3988442, “University of Dundee, Small-Polar-MMV Screening Library” (2021)).

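Whole-cell assay for inhibitors of Mycobacterium tuberculosis growth, labelled Cornell in the record; the read-out is not stated. The concentration is filed as 10 mM, unlikely as a test dose, so the dose is not known. Higher means stronger inhibition (inferred from two other growth screens of the library). Size under these conditions: about 53,000 compounds, about 900 of them at 50% or above in at least one test.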

The filed quantity is “Percent Effect” (%). The record does not define 0% and 100%; most values in the screen are far below 50% and negative numbers occur (in some assays of this library far below -100). Compounds were drawn at random from those tested, without regard to their results.

structure	percent effect
COc1ccc(CN2CCOC[C@H](OCC(=O)N(C)C)C2)cc1	1.185
CC(C)n1ccnc1C1CCN(C(=O)C2COc3ccccc3O2)CC1 (stereo not drawn)	-8.442
CCN(CC)CC1CN(Cc2ccc(C)s2)Cc2nccn2C1.O=C(O)C(F)(F)F.O=C(O)C(F)(F)F (stereo not drawn)	10.64
CN1CC2(CCN(C(=O)COc3ccc(Cl)cc3Cl)CC2)OC1=O	-3.115
[H][C@]12CC[C@]([H])(CN(C(=O)CCc3c(C)nn(C)c3C)C1)N(CCOC)C2	25.5
O=C(O)C(F)(F)F.O=C(O)C(F)(F)F.c1cncc(CN2Cc3nccn3CC(Cn3cccn3)C2)c1 (stereo not drawn)	-3.654
[H][C@@]12CN(c3nc(C)cnc3C)C[C@]1([H])N(C1CCCC1)C(=O)O2	16.16
Cc1nonc1OCCNc1ncnc2sc3c(c12)CCNC3	19.88
Cc1cccc(C(=O)NCCNCC2CNc3ccnn3C2)c1 (stereo not drawn)	-62.91
CCNS(=O)(=O)c1ccc(C)c(C(=O)N(C)Cc2ccco2)c1	3.418
COC(=O)Cn1c(=O)nc2n1C(=O)N(c1cccc(C)c1)C2	2.841
O=C(O)C(F)(F)F.O=C(O)C(F)(F)F.[H][C@]12CCN(c3ncc(F)cn3)[C@@]1([H])C[C@@H](C(=O)NCc1cccnc1)O2	10.95
Cc1cccc(C(=O)N2CCN(c3ccccc3F)CC2)n1	2.914
[H][C@@]12COC[C@]1(COC)CN(C(=O)C1CC(F)(F)C1)C2	-24.79
O=C(O)C(F)(F)F.[H][C@@]12CCN(CCc3ccccc3)C[C@]1([H])O[C@@H](C(=O)NC)C2	28.79
CCc1nc(C)c(C(=O)N2CCNCC2C(=O)Nc2ccc(C)nc2)o1 (stereo not drawn)	11.41
CCc1nc(CCNC(=O)Nc2cccc(C(=O)NC)c2C)cs1	-33.25
Cc1nn(C)c(C)c1C(C)NCc1ccc(OC(C)C)cc1 (stereo not drawn)	-10.69
COCCN(Cc1ccc(F)cc1C#N)CC(F)(F)F	-0.3395
O=C(c1cnc2ccc(F)cc2c1NCc1ccco1)N1CCCCC1	-4.083
CC(C)CN(CC(=O)O)C(=O)c1ccc(F)cc1	14.02
CN(C)CCN1CCOCC2(C1)CN(Cc1ccco1)CCO2.O=C(O)C(F)(F)F.O=C(O)C(F)(F)F.O=C(O)C(F)(F)F (stereo not drawn)	22.03
Cc1nsc(NC(=O)NC2CCCN(C)C2)n1 (stereo not drawn)	-12.88
COc1cccc(-c2noc(-c3ccc(NCC(C)O)nc3)n2)c1OC (stereo not drawn)	14.61
OC(CNCCn1cccn1)c1cccc(F)c1 (stereo not drawn)	4.753
COc1cc(N(C)CCCn2nc(C)cc2C)ncn1	-5.89
CCCn1cc(-c2cc(-c3c[nH]cn3)c(C#N)c(N)n2)c(C)n1	4.241
O=C(NCCc1csc(-c2ncccn2)n1)c1cnn2c1CCCC2	2.98
NC(=O)Cn1ccc(NC(=O)C2(c3cccc(F)c3)CCC2)n1	0.8167
O=C(O)C(F)(F)F.[H][C@@]12CCN(Cc3cn(C)c4ccccc34)[C@]1([H])CC[C@@H](C(=O)NC1CC1)O2	-28.16
Cc1nc(-c2ccc(CNS(=O)(=O)N(C)C)cc2)ccc1C(N)=O	14.95
COc1c(C2CCCN2C(=O)c2ccoc2C)c(C)nn1C (stereo not drawn)	-5.034
[H][C@@]12CS(=O)(=O)C[C@]1([H])N(Cc1ncc[nH]1)CCN2Cc1ccc(CC)cn1	17.2
CNC(=O)CN1CCOCC2(C1)CN(Cc1csnn1)CCO2 (stereo not drawn)	-30.33
CN(CC(O)COc1ccc(C(F)(F)F)cc1)C(=O)Nc1nncs1 (stereo not drawn)	5.534
C[C@@H](NC(=O)c1ccc(Cl)cc1)c1onc(-c2cccnc2)c1C(=O)O.Cl	-11.43
N#Cc1ccccc1OCCN1CCCCC1Cn1cncn1 (stereo not drawn)	6.417
CCc1nc(C)ncc1C(=O)N1CC(C)CN(C)c2ccccc21 (stereo not drawn)	-1.679
COC(=O)NCC(=O)NC(c1ccc(Cl)cc1)C(F)(F)F (stereo not drawn)	22.42
O=C(O)C(F)(F)F.[H][C@@]12CCN(CCOC)C(=O)[C@@]1([H])CN(Cc1ccc(C)s1)C2	19.6
CCn1cc(CNC(=O)CC(C)C)cn1	9.449
Cn1ccc(C(=O)NCc2cccc(Cn3ccnc3)c2)cc1=O	-13.96
[H][C@@]12CCN(S(=O)(=O)c3ccccc3)C[C@]1(C(=O)NC)CCO2	5.103
O=C1CCCN1c1cccc(N2CCC(NCCc3cscn3)CC2)c1	24.64
OCC1CCCN1c1cc(NCCc2ccsc2)ncn1 (stereo not drawn)	-3.918
Cc1c(C(=O)O)cnn1-c1ccc(-c2nc(C(C)C)no2)cn1	31.42
COc1ncccc1NC(=O)c1[nH]nc(C(C)C)c1Br	23.68
CN(C)C(=O)C1OC2(CCN(C(=O)c3ccco3)CC2)c2ccccc21 (stereo not drawn)	8.831
CC(C)Nc1ncnc2c1CCN(C(=O)Cc1cccs1)CC2	23.22
Cc1cc(C(=O)CN2C(=O)c3ccccc3CS2(=O)=O)c(C)[nH]1	9.494
CC(C)c1ccc(NS(=O)(=O)CC2=NC(=O)n3cccc3C2=O)cc1	59.8
COc1c(C)cnc(CN(C)C(=O)c2ccccn2)c1C	-12.85
[H][C@@]12C[C@@H](c3nc(C)no3)CN(S(=O)(=O)CC)[C@]1([H])CCO2	12.93
CC(C)(C)n1ccc(C(=O)N2CCCC(c3ncc[nH]3)C2)c1 (stereo not drawn)	30.1
CCn1cnnc1C1CCN(C(=O)COc2ccccc2OC)CC1	-58.65
Cn1cc(C2CCCN2C(=O)COC2CCCCC2)cn1 (stereo not drawn)	5.387
COC(=O)c1ccc(NC(=O)CCc2ccncc2)c(C)c1	18.36
O=C1NCCN1C1CCCN(Cc2nnc(-c3ccc(F)cc3)o2)C1 (stereo not drawn)	8.681
CCN(CC)c1ncc2c(O)nc(C3CCNCC3)cc2n1	28.18
COC(=O)c1ccc(CCn2cnc(C#N)n2)cc1	-3.315
CCOC(C)c1noc(CN2CCN(Cc3ccno3)CC2)n1 (stereo not drawn)	12.58
COCc1cc(NCCc2ccccn2)n2nccc2n1	3.823
CCc1ncnc2c1CCN(Cc1nccs1)CC2.O=C(O)C(F)(F)F	7.403
CCc1cc(NCc2cc(CC(C)C)on2)n2nccc2n1	42.51
CCC(NC(=O)c1cc(CC(C)C)nn1C)c1ccnn1C (stereo not drawn)	-12.58
O=C(NCC(F)(F)F)C(c1cccnc1)N1CCCC1 (stereo not drawn)	-4.138
Cc1cnc(-c2nc(NC3CC3)ncc2-c2cc(C)no2)cn1	-18.55
CCN(C)c1ncnc2c1CCN(c1ccc(C)nn1)CC2	14.05
CCS(=O)(=O)N1CCC(c2nnc(C(F)(F)F)o2)CC1	17.91
O=C(O)C(F)(F)F.[H][C@]12CN(Cc3csc(C)n3)C(=O)[C@@]1([H])CN(c1ncc(CC)cn1)C2	27.2
CC(C(=O)NCCN1CCCCCC1)n1cncn1 (stereo not drawn)	-21.55
O=C(O)C(F)(F)F.[H][C@@]12COC[C@]1(COc1cccnc1)CN(C(=O)c1cc(C3CC3)on1)C2	-2.788
COCCOc1ccc(NC(=O)C2CCC2)cn1	-24.48
CCCc1nc(CNC2(c3nccs3)CCCC2)cs1	25.66

For reference, 4 entries once more:

Result for COc1cc(N(C)CCCn2nc(C)cc2C)ncn1 was -5.89%.
Result for Cc1nsc(NC(=O)NC2CCCN(C)C2)n1 (stereo not drawn) was -12.88%.
Result for O=C1CCCN1c1cccc(N2CCC(NCCc3cscn3)CC2)c1 was 24.64%.
Result for CCc1cc(NCc2cc(CC(C)C)on2)n2nccc2n1 was 42.51%.